# This is a noisy data set.
# B1: human tRNA-Pro; a variant is named by its letters at N, in order (parent)
# chain: GGCTCGTTGGTCTAGNGGTATGATTCTCGCTTAGGGTGCGAGAGGTCCCGGGTTCNNATCCCGGACGAGCCC
# Variants of: B1
# Test: tRNA 5' processing efficiency (processed reads / all reads, maximum-likelihood estimate) (fraction); higher = more efficient 5' processing
# Settings: HEK293T; construct: CMV Pol-II promoter ((+)CMV library, decapped)
row,Variant,tRNA 5' processing efficiency
1,GGCTCGTTTGTCTTGAGGTATGATTCTCGCTTAGGGTGCGAGAGGTCCCGGGTTCTAATCCCGGACGAGCCC [ATA G9T A14T],0.14
2,GGCTCGTTGGTCTAGGTGTTTGATTCTCGCTTAGGGTGCGAGAGGTCCCGGGGTCTAATCCCGGACGAGCCC [GTA G17T A20T T53G],0.14
3,GGCTCGTTTGTCTAAGACTATGATTCTCGCTTAGGGTGCGAGAGGTCCCGGGTCCTAATCCCGGACGAGCCC [GTA G9T G15A G17A G18C T54C],0.5
4,GGCTCGTTCGTCTGGCGGTATGATTCTCGCTTAGGGTGCGAGAGGTCCCGGGTTCTATTCCCGGACGAGCCC [CTA G9C A14G A58T],0.33
5,GGCTCGTTGGTCTAGGGTTTTGATTCTCGCTTAGGGTGCGAGAGGTCCCGGGTTCTAATCCCGGACGAGCCC [GTA G18T A20T],0.11
6,GGCTCGTTTGTCTAGAGACATGATTCTCGCTTAGGGTGCGAGAGGTCCCGGGTTCTAATCCCGGACGAGCCC [ATA G9T G18A T19C],0.33
7,GGCTCGTAGGTCTAGGGGTATGATTCTCGCTTAGGGTGCGAGAGGTCCCGGGTTTTATACCCGGACGAGCCC [GTA T8A C55T A58T T59A],0.33
8,GGCTCGTTAGTCTAGCGGTATGATTCTCGCTTAGGGTGCGAGAGGTCCCGGGATCTAAACCCGGACGAGCCC [CTA G9A T53A T59A],0.33
9,GGCTCGTTGGTCTAAGTGTTTGATTCTCGCTTAGGGTGCGAGAGGTCCCGGGGTCTAGTCCCGGACGAGCCC [GTA G15A G17T A20T T53G A58G],0.25
10,GGCTCGTTGGTCTAGGGGTATGATTCTCGCTTAGGGTGCGAGAGGTCCCGGGTGCGAATCCCGGACGAGCCC [GGA T54G],0.29
11,GGCTCGTTAGTCTACGGGTATGATTCTCGCTTAGGGTGCGAGAGGTCCCGGGTTCGGTCCCCGGACGAGCCC [GGG G9A G15C A58T T59C],0.13
12,GGCTCGTTGGTCTATGGGTATGATTCTCGCTTAGGGTGCGAGAGGTCCCGGGATCTAATCCCGGACGAGCCC [GTA G15T T53A],0.25
13,GGCTCGTTGGTCTACGCGTATGATTCTCGCTTAGGGTGCGAGAGGTCCCGGGTTCTAAGCCCGGACGAGCCC [GTA G15C G17C T59G],0.2
14,GGCTCGTTTGTCTAGGCATTTGATTCTCGCTTAGGGTGCGAGAGGTCCCGGGTTTTAATCCCGGACGAGCCC [GTA G9T G17C G18A A20T C55T],0.25
15,GGCTCGTTGGTCTGGGTGTGTGATTCTCGCTTAGGGTGCGAGAGGTCCCGGGTTTTAACCCCGGACGAGCCC [GTA A14G G17T A20G C55T T59C],0.5
16,GGCTCGTTGGTCTGGAGGTCTGATTCTCGCTTAGGGTGCGAGAGGTCCCGGGTTCGTATCCCGGACGAGCCC [AGT A14G A20C],0.33
17,GGCTCGTTGGTCTAGTTCTATGATTCTCGCTTAGGGTGCGAGAGGTCCCGGGTTCTAATCCCGGACGAGCCC [TTA G17T G18C],0.2
18,GGCTCGTTGGTCTCGAGGTTTGATTCTCGCTTAGGGTGCGAGAGGTCCCGGGTTCGCATCCCGGACGAGCCC [AGC A14C A20T],0.43
19,GGCTCGTTGGTCTAGCAGTATGATTCTCGCTTAGGGTGCGAGAGGTCCCGGGTTTGCATCCCGGACGAGCCC [CGC G17A C55T],0.5

# Pulled one by one from the list above (two):
row,Variant,tRNA 5' processing efficiency
10,GGCTCGTTGGTCTAGGGGTATGATTCTCGCTTAGGGTGCGAGAGGTCCCGGGTGCGAATCCCGGACGAGCCC [GGA T54G],0.29
15,GGCTCGTTGGTCTGGGTGTGTGATTCTCGCTTAGGGTGCGAGAGGTCCCGGGTTTTAACCCCGGACGAGCCC [GTA A14G G17T A20G C55T T59C],0.5

# Further records follow.

row,Variant,tRNA 5' processing efficiency
1,GGCTCGTTGGTCTAGGGGTTTGATTCTCGCTTAGGGTGCGAGAGGTCCCGGGTTTTAAGCCCGGACGAGCCC [GTA A20T C55T T59G],0.29
2,GGCTCGTTGGTCTAGGCGTGTGATTCTCGCTTAGGGTGCGAGAGGTCCCGGGTTATAATCCCGGACGAGCCC [GTA G17C A20G C55A],0.25
3,GGCTCGTTTGTCTAGGCGTATGATTCTCGCTTAGGGTGCGAGAGGTCCCGGGTTCTAATCCCGGACGAGCCC [GTA G9T G17C],0.33
4,GGCTCGTTGGTCTATGAATATGATTCTCGCTTAGGGTGCGAGAGGTCCCGGGTTATAATCCCGGACGAGCCC [GTA G15T G17A G18A C55A],0.4
5,GGCTCGTTGGTCTACGGATATGATTCTCGCTTAGGGTGCGAGAGGTCCCGGGTTCTAACCCCGGACGAGCCC [GTA G15C G18A T59C],0.09
6,GGCTCGTTAGTCTAGGAATATGATTCTCGCTTAGGGTGCGAGAGGTCCCGGGATCTAATCCCGGACGAGCCC [GTA G9A G17A G18A T53A],0.33
7,GGCTCGTTGGTCTAGAGGTATGATTCTCGCTTAGGGTGCGAGAGGTCCCGGGCTCGACTCCCGGACGAGCCC [AGA T53C A58C],0.5
8,GGCTCGTTGGTCTAAGGGTGTGATTCTCGCTTAGGGTGCGAGAGGTCCCGGGTGCTAATCCCGGACGAGCCC [GTA G15A A20G T54G],0.2
9,GGCTCGTTGGTCTAGATGTATGATTCTCGCTTAGGGTGCGAGAGGTCCCGGGTTCTAACCCCGGACGAGCCC [ATA G17T T59C],0.1
10,GGCTCGTTGGTCTAGGGTTATGATTCTCGCTTAGGGTGCGAGAGGTCCCGGGTTCTAGGCCCGGACGAGCCC [GTA G18T A58G T59G],0.33
11,GGCTCGTAGGTCTTGGGGTATGATTCTCGCTTAGGGTGCGAGAGGTCCCGGGTTCTAATCCCGGACGAGCCC [GTA T8A A14T],0.33
12,GGCTCGTTGGTCTACGCTTATGATTCTCGCTTAGGGTGCGAGAGGTCCCGGGTTCTAATCCCGGACGAGCCC [GTA G15C G17C G18T],0.57
13,GGCTCGTTAGTCTAGTAGTATGATTCTCGCTTAGGGTGCGAGAGGTCCCGGGTCTTAAACCCGGACGAGCCC [TTA G9A G17A T54C C55T T59A],0.33
14,GGCTCGTTGGTCTAGGGATATGATTCTCGCTTAGGGTGCGAGAGGTCCCGGGGTATAAACCCGGACGAGCCC [GTA G18A T53G C55A T59A],0.33
15,GGCTCGTTGGTCTCGAGGTATGATTCTCGCTTAGGGTGCGAGAGGTCCCGGGTTCGTATCCCGGACGAGCCC [AGT A14C],0.33
16,GGCTCGTTGGTCTTGGTGTATGATTCTCGCTTAGGGTGCGAGAGGTCCCGGGTTCGTATCCCGGACGAGCCC [GGT A14T G17T],0.2
17,GGCTCGTTGGTCTAGGGGTATGATTCTCGCTTAGGGTGCGAGAGGTCCCGGGTTCGTGTCCCGGACGAGCCC [GGT A58G],0.2
18,GGCTCGTTTGTCTAGGCGTGTGATTCTCGCTTAGGGTGCGAGAGGTCCCGGGTTCTAATCCCGGACGAGCCC [GTA G9T G17C A20G],0.84
19,GGCTCGTTCGTCTAGCGGTATGATTCTCGCTTAGGGTGCGAGAGGTCCCGGGTTCTAATCCCGGACGAGCCC [CTA G9C],0.25

# Reference: the supplement of paper PMC6445147
